# Measured values published in PubChem BioAssay AID493014 (National Center for Advancing Translational Sciences (NCATS), 2011).
# This is one part of the list. Shown are side measurements of this screen, not its main read-out; they come without a call. The list favours compounds with an active or inconclusive main result. The note in brackets gives the kind of curve behind each potency; many fits are weak.
# Experiment: qHTS Assay to Find Inhibitors of Chronic Active B-Cell Receptor Signaling
# Conditions: ABC-DLBCL IkBa-CBG/CBR reporter, luminescence ratio (green luciferase fused to IkBa over red control in TMD8 lymphoma cells), 4 h
# Outline: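 Concentration-response series (up to 46 uM) were applied to TMD8 dual-reporter cells for 4 h at 37C with doxycycline. Green/red ratio, after filter-overlap correction, defined %Activity; red signal alone was normalised to basal cells and zero luminescence.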
# [1] = measured here: CBR red luminescence, cell number
SMILES,AC50 [1],AC50 (measured here: IkBa-CBG green luminescence)
Cc1ccc2nc(NC(=O)C3CCN(S(=O)(=O)c4cc([N+](=O)[O-])ccc4Cl)CC3)sc2c1,"5.17 µM [falling, partial curve]","29.1 µM [rising, partial curve, poor fit]"
NS(=O)(=O)c1cccc(NC(=O)c2ccno2)c1,"15.8 µM [rising, single point]",
CC(=NCc1ccco1)c1c(C(F)(F)F)[nH]n(-c2nc3ccccc3s2)c1=O,"1.84 µM [falling, full curve, poor fit]",
CCSc1nnc(SCC(=O)Nc2cc(C)on2)s1,"6.51 µM [rising, partial curve, poor fit]",
CCC(C)NCCOCCOc1ccc(Br)cc1C (configuration not stated),"29.1 µM [falling, single point]",
COCc1ccc(C(=O)N2CCCC(C(=O)c3ccc(SC)cc3)C2)s1 (configuration not stated),"12.6 µM [falling, partial curve, poor fit]",
Cc1cccc(OCCSc2ncnc3nc[nH]c23)c1,"0.1 µM [rising, full curve, poor fit]",
O=C(Nc1cccc(-c2cnc3ccccc3n2)c1)c1ccco1,"32.6 µM [falling, single point]",
O=C(Nc1ccccn1)c1ccc(=O)[nH]n1,"2.59 µM [rising, partial curve, poor fit]",
COc1ccc(C2CC(c3ccccc3)=NN2C(=O)CSc2nccc(=O)[nH]2)cc1 (configuration not stated),"18.4 µM [rising, partial curve, poor fit]",
O=C(CCN1C(=O)S/C(=C/c2ccc(F)cc2)C1=O)Nc1ccc(O)c(C(=O)O)c1,"0.0891 µM [falling, full curve, poor fit]",
C=CCN(CC=C)Cc1c(O)ccc2c(=O)c(-c3ccccc3)coc12,"11.2 µM [rising, partial curve, poor fit]",
CC(C)(C)NC(=O)NC(=O)COC(=O)c1cccc(OC(F)F)c1,"22.4 µM [falling, single point]",
O=C(Cc1ccccc1)Nc1ccccc1C(=O)Nc1ccccc1,"4.61 µM [rising, full curve, poor fit]",
NC(=O)c1cnn(-c2cc(Oc3ccccc3)ncn2)c1N,"15.8 µM [rising, partial curve, poor fit]",
Cc1cc(NC(=O)CCC(=O)N(Cc2ccco2)C(C(=O)NC2CCCCC2)c2cccs2)no1 (configuration not stated),"20 µM [falling, partial curve, poor fit]",
O=C(O)c1ccc(N=NNc2cccc([N+](=O)[O-])c2)cc1,"2.24 µM [falling, partial curve]",
CC(=O)Nc1ccc(NC(=O)COC(=O)c2ccccc2SCC(=O)N2CCCC2)cc1,"29.1 µM [rising, partial curve, poor fit]",
CC(C)(C)OC(=O)C[C@@H]1C/C=C\C[C@H](CC(=O)N(CCO)Cc2ccccc2)C(=O)NC[C@H](c2ccccc2)OC1=O,"18.4 µM [rising, single point]",
O=C(COC(=O)c1c2c(nc3ccccc13)CCCC2)c1ccc(Br)s1,"29.1 µM [falling, single point]",
O=C(N/N=C1/CC2C=CCC12)c1cccs1 (configuration not stated),"25.1 µM [falling, single point]",

SMILES,AC50 [1],AC50 (measured here: IkBa-CBG green luminescence)
CCOC(=O)NC(NC(=S)Nc1ccc(OCC)cc1)C(Cl)(Cl)Cl (configuration not stated),"9.2 µM [falling, partial curve, poor fit]",
COc1ccccc1-c1nnc2sc(COc3ccccc3)nn12,"35.5 µM [falling, single point]",
Cc1ccc(NCC(=O)c2ccc([N+](=O)[O-])cc2)cc1,"35.5 µM [falling, single point]",
Cc1cc(=O)oc2cc(OS(C)(=O)=O)ccc12,"11.2 µM [rising, partial curve, poor fit]",
COc1cc(/C=C2\SC(=S)N(CC(=O)Nc3ccc(O)cc3)C2=O)cc(OC)c1OC,"35.5 µM [rising, single point]",
CCOc1ccc(NC(=O)c2ccc(N)cc2)cc1,"11.6 µM [falling, partial curve]",
CCOc1cc(CNc2ccc3c(c2)OCCO3)cc(Br)c1OC,"6.51 µM [falling, single point]",
CS(=O)(=O)n1nc(-c2ccc(Cl)cc2)nc1N,"1.12 µM [rising, partial curve]",
CN(C)/C=N/c1ncc(C(=O)c2ccc3ccccc3c2)s1,"35.5 µM [falling, single point]",
CCc1nnc(NC(=O)C2COc3ccccc3O2)s1 (configuration not stated),"13 µM [falling, partial curve, poor fit]",
COC(=O)c1c(NC(=O)c2ccco2)sc2c1CCN(C(C)C)C2,"35.5 µM [falling, single point]",
O=c1oc2c(CN3CCOCC3)c(O)ccc2c2c1CCCC2,"7.08 µM [rising, full curve, poor fit]",
Cc1cccc(CN2CCN(CC(=O)N3CCCC3)C2=O)c1,"0.206 µM [rising, full curve, poor fit]",
Cc1ccc(C(C)C)cc1NC(=O)Nc1ccc([N+](=O)[O-])cc1,"28.2 µM [rising, single point]",
CN(C1CCCCC1)S(=O)(=O)c1ccc(NC(=O)c2ccc(Br)o2)cc1,"1.3 µM [falling, full curve, poor fit]",
O=C(CCc1[nH]c2ccccc2c1Sc1ccccc1)NCCO,"32.6 µM [falling, single point]",
CC(C)(C)NC(=O)CC(CC(=O)O)c1ccccc1 (configuration not stated),"29.1 µM [rising, single point]",
O=C(CSc1nnc(-c2ccc(Cl)cc2)n1Cc1ccco1)Nc1ccc2c(c1)OCCO2,"10 µM [falling, partial curve, poor fit]",
S=C(Nc1cccc(Cl)c1Cl)N1CCC2(CC1)OCCO2,"14.1 µM [rising, partial curve, poor fit]",
O=C(COC(=O)c1cnccn1)c1ccc(Cl)c([N+](=O)[O-])c1,"14.1 µM [falling, partial curve, poor fit]",

# For convenience, 3 of the compounds above.
SMILES,AC50 [1],AC50 (measured here: IkBa-CBG green luminescence)
CN(C)/C=N/c1ncc(C(=O)c2ccc3ccccc3c2)s1,"35.5 µM [falling, single point]",
CCc1nnc(NC(=O)C2COc3ccccc3O2)s1 (configuration not stated),"13 µM [falling, partial curve, poor fit]",
COC(=O)c1c(NC(=O)c2ccco2)sc2c1CCN(C(C)C)C2,"35.5 µM [falling, single point]",
